Source: paper PMC13486763
These are yes or no findings as the source states them, for the method shown. In cells and extracts the contact can be indirect. These calls come from enrichment with a bait or labelling near it, and not all partners need be listed.

By UniProt entry, the sequences of proteins in these tests, tags left out.
UniProt O94762: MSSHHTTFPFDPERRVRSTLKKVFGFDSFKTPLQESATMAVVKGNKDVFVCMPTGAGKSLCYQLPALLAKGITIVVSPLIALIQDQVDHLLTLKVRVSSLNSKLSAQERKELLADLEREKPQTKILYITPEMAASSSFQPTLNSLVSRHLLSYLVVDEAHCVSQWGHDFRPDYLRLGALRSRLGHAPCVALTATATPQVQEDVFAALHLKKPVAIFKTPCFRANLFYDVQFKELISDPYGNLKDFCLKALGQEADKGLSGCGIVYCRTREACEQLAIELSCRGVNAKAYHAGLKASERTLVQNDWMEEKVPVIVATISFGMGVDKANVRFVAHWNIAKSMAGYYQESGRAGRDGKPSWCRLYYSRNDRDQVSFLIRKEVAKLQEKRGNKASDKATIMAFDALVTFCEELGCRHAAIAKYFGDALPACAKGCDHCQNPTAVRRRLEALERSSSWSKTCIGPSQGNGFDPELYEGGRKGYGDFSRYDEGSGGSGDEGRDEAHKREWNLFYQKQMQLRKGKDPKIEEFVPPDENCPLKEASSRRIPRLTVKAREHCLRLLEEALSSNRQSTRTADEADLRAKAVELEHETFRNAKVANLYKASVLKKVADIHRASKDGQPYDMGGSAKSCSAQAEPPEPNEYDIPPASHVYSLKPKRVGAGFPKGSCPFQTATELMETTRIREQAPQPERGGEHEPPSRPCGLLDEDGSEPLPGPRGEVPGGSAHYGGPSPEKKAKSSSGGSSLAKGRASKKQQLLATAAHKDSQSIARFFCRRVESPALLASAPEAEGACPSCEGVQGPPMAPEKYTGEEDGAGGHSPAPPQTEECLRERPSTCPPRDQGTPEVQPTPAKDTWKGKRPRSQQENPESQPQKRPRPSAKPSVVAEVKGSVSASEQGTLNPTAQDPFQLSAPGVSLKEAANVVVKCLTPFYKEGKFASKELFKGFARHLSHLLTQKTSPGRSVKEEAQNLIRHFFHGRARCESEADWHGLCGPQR

biological target: eGFP-AID-3C-Gdown1 (endogenously tagged Gdown1) (human (endogenous in K562)) (UniProt P0CAP2); test: affinity purification with mass spectrometry; GFPtrap (Chromotek) resin with cytoplasmic or nuclear extract of K562 cells with GFP-tagged Gdown1, wild-type extract as control; 2 h at 4 °C; 100 mM NaCl, 0.05% Triton X-100 wash; elution with 3C protease; label-free MS, triplicate

binding, binds:
GPN3 (endogenous) (from UniProt Q9UHW5 1-284)
RECQL5 (from UniProt O94762 1-991)
RPAP2 (endogenous) (from UniProt Q8IXW5 1-612)
